Reference: article PMC4583546
These are yes or no findings as the source states them, for the method shown. Binding seen in cells or lysates may run through a third protein. Binding can be weak; no strength is given.

The chains behind the UniProt entries cited, without tags or fusion partners. Where a name states a change or a piece, a line headed by the entry shows the natural chain unless it says otherwise.
UniProt Q92630: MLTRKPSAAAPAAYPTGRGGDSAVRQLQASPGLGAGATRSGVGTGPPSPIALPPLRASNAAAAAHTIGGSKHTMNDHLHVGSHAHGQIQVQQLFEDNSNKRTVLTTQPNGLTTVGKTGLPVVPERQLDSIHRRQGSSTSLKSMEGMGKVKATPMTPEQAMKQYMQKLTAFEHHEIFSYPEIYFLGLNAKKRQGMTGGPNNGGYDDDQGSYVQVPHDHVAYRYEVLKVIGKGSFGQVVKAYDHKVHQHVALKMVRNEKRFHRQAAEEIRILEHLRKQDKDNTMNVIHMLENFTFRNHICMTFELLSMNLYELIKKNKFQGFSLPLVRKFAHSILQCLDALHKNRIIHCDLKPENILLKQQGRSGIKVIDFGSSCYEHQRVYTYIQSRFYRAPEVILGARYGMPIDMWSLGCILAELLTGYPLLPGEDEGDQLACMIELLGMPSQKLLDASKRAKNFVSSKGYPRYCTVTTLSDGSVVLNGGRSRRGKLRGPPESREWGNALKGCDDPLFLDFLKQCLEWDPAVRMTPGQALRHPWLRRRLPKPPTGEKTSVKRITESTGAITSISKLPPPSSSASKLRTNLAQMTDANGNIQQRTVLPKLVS
UniProt Q9UHD2: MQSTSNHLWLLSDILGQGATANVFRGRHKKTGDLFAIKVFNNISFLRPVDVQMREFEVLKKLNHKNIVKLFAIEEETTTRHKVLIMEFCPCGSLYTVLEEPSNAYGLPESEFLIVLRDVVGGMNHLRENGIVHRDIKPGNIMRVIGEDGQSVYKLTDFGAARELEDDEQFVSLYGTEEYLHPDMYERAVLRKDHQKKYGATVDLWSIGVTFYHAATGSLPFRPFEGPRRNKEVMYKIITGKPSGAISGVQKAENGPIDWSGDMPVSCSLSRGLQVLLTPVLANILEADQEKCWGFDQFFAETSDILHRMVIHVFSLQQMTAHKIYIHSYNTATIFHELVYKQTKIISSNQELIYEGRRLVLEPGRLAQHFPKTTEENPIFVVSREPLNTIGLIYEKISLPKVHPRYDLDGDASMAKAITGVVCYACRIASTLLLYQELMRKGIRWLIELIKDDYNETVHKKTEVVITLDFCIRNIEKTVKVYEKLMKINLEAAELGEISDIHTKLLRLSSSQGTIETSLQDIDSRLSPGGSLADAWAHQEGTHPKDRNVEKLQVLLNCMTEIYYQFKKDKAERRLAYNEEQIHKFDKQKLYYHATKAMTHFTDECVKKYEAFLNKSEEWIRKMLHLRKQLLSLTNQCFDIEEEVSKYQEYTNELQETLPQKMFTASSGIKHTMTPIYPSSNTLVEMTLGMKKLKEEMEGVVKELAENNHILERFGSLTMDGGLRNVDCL

Target: dual-specificity tyrosine-(Y)-phosphorylation-regulated kinase 2 (DYRK2) (human) (UniProt Q92630)
Test: co-IP; 293 cells transiently transfected with HA- and Flag-tagged plasmids; lysis in 20 mM Tris pH 7.5, 150 mM NaCl, 1% Triton, 1 mM EDTA; indicated antibody (anti-Flag in Fig 5B, 5D) or control IgG with protein G agarose, 4 h at 4°C; washes with 0.5 M NaCl; immunoblot with anti-HA or anti-Flag; Fig 6E with MG132, with or without overexpressed DYRK2

binding: binds
Substance: TANK-binding kinase 1 (TBK1) (from UniProt Q9UHD2 1-729) (enzyme)
